{"source": "patent US20240299303A1", "about": "“NANOSTRUCTURE OR MICROSTRUCTURE AND METHOD FOR PRODUCING SAME” (The University of Tokyo, priority 2021, published 2024)", "experiment": "Introduction of compounds into nanosheets, absorbance of supernatant after centrifugation", "assay_type": "physicochemical", "description": "700 Microliters of an aqueous solution (300 μg/mL) of 5-fluorouracil was added to 500 mg of the nanosheet dispersion-1 obtained in Example 1, and the mixture was shaken at room temperature for 48 hours. The nanosheet dispersion having introduced thereinto 5-fluorouracil was centrifuged (at 12,000 rpm for 10 minutes), and the supernatant liquid was collected.\nThe introduction amount of 5-fluorouracil was determined by the same process as that of Example 4 except that a concentration-absorbance calibration curve was produced at a predetermined wavelength (λ=270 nm).\n700 Microliters of an aqueous solution (100 μg/mL) of hydrocortisone was added to 500 mg of the nanosheet dispersion-1 obtained in Example 1, and the mixture was shaken at room temperature for 48 hours. The nanosheet dispersion having introduced thereinto hydrocortisone was centrifuged (at 12,000 rpm for 10 minutes), and the supernatant liquid was collected.\nThe introduction amount of hydrocortisone was determined by the same process as that of Example 4 except that a concentration-absorbance calibration curve was produced at a predetermined wavelength (λ250 nm).\n500 Microliters of an aqueous solution (30 μg/mL) of betamethasone was added to 100 mg of the nanosheet dispersion-1 obtained in Example 1, and the mixture was shaken at room temperature for 48 hours. The nanosheet dispersion having introduced thereinto betamethasone was centrifuged (at 12,000 rpm for 10 minutes), and the supernatant liquid was collected.\nThe introduction amount of betamethasone was determined by the same process as that of Example 4 except that a concentration-absorbance calibration curve was produced at a predetermined wavelength (λ=250 nm).\n500 Microliters of an aqueous solution (30 μg/mL) of menadione was added to 100 mg of the nanosheet dispersion-1 obtained in Example 1, and the mixture was shaken at room temperature for 48 hours. The nanosheet dispersion having introduced thereinto menadione was centrifuged (at 12,000 rpm for 10 minutes), and the supernatant liquid was collected.\nThe introduction amount of menadione was determined by the same process as that of Example 4 except that a concentration-absorbance calibration curve was produced at a predetermined wavelength (λ=250 nm).", "note": "Where a name gives a salt, the structure may show the parent alone."}
{"compound": "COc1cc2c(cc1OC)C(=O)C(CC1CCN(Cc3ccccc3)CC1)C2", "note": "(centres unmarked) [Donepezil hydrochloride, donepezil hydrochloride]", "values": [{"measurement": "introduction amount relative to the weight of the nanosheets", "setting": "Examples 4-8, crosslinked β-cyclodextrin nanosheets", "value": 0.70, "unit": "wt %"}, {"measurement": "Weight of introduced compound/weight of nanosheets", "setting": "Table 1, crosslinked β-cyclodextrin nanosheets", "value": 0.60, "unit": "%"}, {"measurement": "Concentration of introduced compound before introduction", "setting": "in nanosheet dispersion, defined in consideration of dilution with moisture in the dispersion, nanosheets 43 mg/mL (Examples 4-6) or 17 mg/mL (Examples 7-8)", "value": 304, "unit": "µg/mL"}, {"measurement": "amount of compound introduced into the nanosheets (reduction in concentration before and after introduction)", "setting": "nanosheets 43 mg/mL (Examples 4-6) or 17 mg/mL (Example 8)", "value": 304, "unit": "µg/mL"}, {"measurement": "Concentration of introduced compound after introduction", "setting": "supernatant after shaking at room temperature 48 hours and centrifugation, absorbance, nanosheets 43 mg/mL (Examples 4-6) or 17 mg/mL (Examples 7-8)", "value": 0, "unit": "ng/mL"}]}
